Reference: PubChem BioAssay AID1159579 (Peter MacCallum Cancer Centre, 2015)
Test: 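Find genes whose silencing alters migration of lymphatic endothelial cells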 (follow-up of hits). Cell system: human dermal lymphatic endothelial cells. Knock-down reagent: single siRNA against human genes, 25 nM. Detection: 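Scratch wound imaging measuring area filled by moving cells plus nuclei number, averaged over two wells and scaled to mock-transfected controls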. Scale: migration relative to mock: higher = more migration into the scratch; mean nuclei count: higher = more cells remaining. Call rule: 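a ratio of at most 0.6 or at least 1.3 marks altered migration and an active call; a mean nuclei count under 3300 forces an inactive call regardless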. Meaning of the calls: active = migration changed (impaired or accelerated); inactive = no migration change, or too few cells.
Here is a random part of about 2,000 reagents. 549 of all reagents (27%) count as active. 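Some migration ratios are negative; siRNAs with too few cells are inactive whatever their migration ratio.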 Reagents against one gene are numbered here. Further read-outs or replicates are left out here. Not given: the time to read-out.

| gene | reagent | migration relative to mock | mean nuclei count | Call |
| --- | --- | --- | --- | --- |
| PMVK (phosphomevalonate kinase) | 1 | 0.64 | 5104 | inactive |
| PMVK (phosphomevalonate kinase) | 2 | 0.55 | 5144 | active |
| PMVK (phosphomevalonate kinase) | 3 | 0.19 | 4209 | active |
| PMVK (phosphomevalonate kinase) | 4 | 1.09 | 6396 | inactive |
| ELP2 (elongator acetyltransferase complex subunit 2) | 1 | 0.55 | 4472 | active |
| ELP2 (elongator acetyltransferase complex subunit 2) | 2 | 0.93 | 6995 | inactive |
| ELP2 (elongator acetyltransferase complex subunit 2) | 3 | 0.98 | 6119 | inactive |
| ELP2 (elongator acetyltransferase complex subunit 2) | 4 | 0.6 | 5532 | active |
| GJC3 (gap junction protein gamma 3) | 1 | 0.98 | 5730 | inactive |
| GJC3 (gap junction protein gamma 3) | 2 | 0.52 | 4167 | active |
| GJC3 (gap junction protein gamma 3) | 3 | 0.86 | 5646 | inactive |
| GJC3 (gap junction protein gamma 3) | 4 | 0.92 | 4752 | inactive |
| PPP1R15A (protein phosphatase 1 regulatory subunit 15A) | 1 | 1 | 4472 | inactive |
| PPP1R15A (protein phosphatase 1 regulatory subunit 15A) | 2 | 0.99 | 4571 | inactive |
| PPP1R15A (protein phosphatase 1 regulatory subunit 15A) | 3 | 1.21 | 5104 | inactive |
| PPP1R15A (protein phosphatase 1 regulatory subunit 15A) | 4 | 1.13 | 5751 | inactive |
| USP18 (ubiquitin specific peptidase 18) | 1 | 0.74 | 4253 | inactive |
| USP18 (ubiquitin specific peptidase 18) | 2 | 0.04 | 3534 | active |
| USP18 (ubiquitin specific peptidase 18) | 3 | 0.92 | 5924 | inactive |
| USP18 (ubiquitin specific peptidase 18) | 4 | 0.8 | 6394 | inactive |
| AKR1C6P (aldo-keto reductase family 1 member C6, pseudogene) | 1 | 0.4 | 5536 | active |
| AKR1C6P (aldo-keto reductase family 1 member C6, pseudogene) | 2 | 1.07 | 5124 | inactive |
| AKR1C6P (aldo-keto reductase family 1 member C6, pseudogene) | 3 | 0.41 | 4031 | active |
| AKR1C6P (aldo-keto reductase family 1 member C6, pseudogene) | 4 | 1.04 | 4997 | inactive |
| CALM2 (calmodulin 2) | 1 | 0.86 | 5610 | inactive |
| CALM2 (calmodulin 2) | 2 | 0.38 | 3915 | active |
| CALM2 (calmodulin 2) | 3 | 0.97 | 4690 | inactive |
| CALM2 (calmodulin 2) | 4 | 0.44 | 3494 | active |
| ITFG2 (integrin alpha FG-GAP repeat containing 2) | 1 | 0.95 | 5314 | inactive |
| ITFG2 (integrin alpha FG-GAP repeat containing 2) | 2 | 0.44 | 4941 | active |
| ITFG2 (integrin alpha FG-GAP repeat containing 2) | 3 | 0.17 | 3618 | active |
| ITFG2 (integrin alpha FG-GAP repeat containing 2) | 4 | 0.6 | 4494 | active |
| COL2A1 (collagen type II alpha 1 chain) | 1 | 0.99 | 5226 | inactive |
| COL2A1 (collagen type II alpha 1 chain) | 2 | 0.57 | 4821 | active |
| COL2A1 (collagen type II alpha 1 chain) | 3 | 0.88 | 4936 | inactive |
| COL2A1 (collagen type II alpha 1 chain) | 4 | 0.76 | 5513 | inactive |
| RSPH9 (radial spoke head component 9) | 1 | 0.86 | 5872 | inactive |
| RSPH9 (radial spoke head component 9) | 2 | 1.09 | 5946 | inactive |
| RSPH9 (radial spoke head component 9) | 3 | 0.85 | 5940 | inactive |
| RSPH9 (radial spoke head component 9) | 4 | 0.92 | 6364 | inactive |
| ATRAID (all-trans retinoic acid induced differentiation factor) | 1 | 0.47 | 4044 | active |
| ATRAID (all-trans retinoic acid induced differentiation factor) | 2 | 0.8 | 5668 | inactive |
| ATRAID (all-trans retinoic acid induced differentiation factor) | 3 | 0.59 | 4826 | active |
| ATRAID (all-trans retinoic acid induced differentiation factor) | 4 | 0.34 | 5070 | active |
| SLC3A2 | 1 | 0.29 | 4196 | active |
| SLC3A2 | 2 | 0.44 | 2797 | inactive |
| SLC3A2 | 3 | 1.07 | 5744 | inactive |
| SLC3A2 | 4 | 0.86 | 6428 | inactive |
| ARB2A (ARB2 cotranscriptional regulator A) | 1 | 1.09 | 6332 | inactive |
| ARB2A (ARB2 cotranscriptional regulator A) | 2 | 1.14 | 5714 | inactive |
| ARB2A (ARB2 cotranscriptional regulator A) | 3 | 0.35 | 3802 | active |
| ARB2A (ARB2 cotranscriptional regulator A) | 4 | 1.03 | 5422 | inactive |
| LILRB2 (leukocyte immunoglobulin like receptor B2) | 1 | 1.14 | 6918 | inactive |
| LILRB2 (leukocyte immunoglobulin like receptor B2) | 2 | 0.86 | 4780 | inactive |
| LILRB2 (leukocyte immunoglobulin like receptor B2) | 3 | 0.64 | 5804 | inactive |
| LILRB2 (leukocyte immunoglobulin like receptor B2) | 4 | 0.97 | 6912 | inactive |
| SLC31A2 | 1 | 0.54 | 7126 | active |
| SLC31A2 | 2 | 0.96 | 5788 | inactive |
| SLC31A2 | 3 | 0.42 | 6155 | active |
| SLC31A2 | 4 | -1.41 | 1488 | inactive |
| JHY (junctional cadherin complex regulator) | 1 | 0.74 | 5784 | inactive |
| JHY (junctional cadherin complex regulator) | 2 | 0.28 | 4820 | active |
| JHY (junctional cadherin complex regulator) | 3 | 0.6 | 4600 | active |
| JHY (junctional cadherin complex regulator) | 4 | 0.9 | 4306 | inactive |
| MYL11 (myosin light chain 11) | 1 | 0.64 | 5846 | inactive |
| MYL11 (myosin light chain 11) | 2 | 1.12 | 7037 | inactive |
| MYL11 (myosin light chain 11) | 3 | -0.25 | 4524 | active |
| MYL11 (myosin light chain 11) | 4 | 0.79 | 6305 | inactive |

3 entries from above in another layout:
gene,reagent,migration relative to mock,mean nuclei count,Call
GJC3 (gap junction protein gamma 3),1,0.98,5730,inactive
GJC3 (gap junction protein gamma 3),2,0.52,4167,active
GJC3 (gap junction protein gamma 3),3,0.86,5646,inactive
